# The list shows a part of the results.
# Chains of the proteins cited; added tags and fusions are not shown. Lines headed by an entry give the natural chain unless they say otherwise; changes in a name come on top.
# UniProt Q9NSY1, whole entry, looked up: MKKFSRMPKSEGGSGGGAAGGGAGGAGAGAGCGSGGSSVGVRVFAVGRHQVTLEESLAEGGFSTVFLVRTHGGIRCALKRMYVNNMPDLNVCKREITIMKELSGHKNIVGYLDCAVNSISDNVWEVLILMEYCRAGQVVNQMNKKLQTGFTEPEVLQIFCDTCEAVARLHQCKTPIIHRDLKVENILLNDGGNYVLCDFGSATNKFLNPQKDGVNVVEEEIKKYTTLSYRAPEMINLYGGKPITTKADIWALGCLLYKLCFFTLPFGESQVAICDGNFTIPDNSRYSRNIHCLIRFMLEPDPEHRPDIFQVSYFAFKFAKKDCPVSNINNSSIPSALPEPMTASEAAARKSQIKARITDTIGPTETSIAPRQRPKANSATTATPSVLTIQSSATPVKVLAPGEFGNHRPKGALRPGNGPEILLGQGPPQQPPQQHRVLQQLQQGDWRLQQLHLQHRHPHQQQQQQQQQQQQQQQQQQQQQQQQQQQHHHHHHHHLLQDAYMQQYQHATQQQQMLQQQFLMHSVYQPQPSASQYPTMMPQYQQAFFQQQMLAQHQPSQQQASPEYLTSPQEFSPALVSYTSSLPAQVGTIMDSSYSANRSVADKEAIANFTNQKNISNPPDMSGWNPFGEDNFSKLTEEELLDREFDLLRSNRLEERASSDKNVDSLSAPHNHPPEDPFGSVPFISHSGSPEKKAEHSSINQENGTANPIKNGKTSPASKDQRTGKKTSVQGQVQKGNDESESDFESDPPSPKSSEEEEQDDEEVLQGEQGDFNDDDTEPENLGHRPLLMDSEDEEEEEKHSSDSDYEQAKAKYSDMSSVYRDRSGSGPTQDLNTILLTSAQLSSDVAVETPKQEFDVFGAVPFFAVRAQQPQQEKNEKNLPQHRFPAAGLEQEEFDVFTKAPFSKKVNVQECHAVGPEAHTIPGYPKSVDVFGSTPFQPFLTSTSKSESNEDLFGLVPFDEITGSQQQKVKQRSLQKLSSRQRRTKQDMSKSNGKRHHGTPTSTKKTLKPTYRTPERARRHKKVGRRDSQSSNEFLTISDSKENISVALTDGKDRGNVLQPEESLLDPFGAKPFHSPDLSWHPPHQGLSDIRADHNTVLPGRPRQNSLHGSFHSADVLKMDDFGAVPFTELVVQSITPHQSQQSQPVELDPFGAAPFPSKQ
# UniProt Q14137: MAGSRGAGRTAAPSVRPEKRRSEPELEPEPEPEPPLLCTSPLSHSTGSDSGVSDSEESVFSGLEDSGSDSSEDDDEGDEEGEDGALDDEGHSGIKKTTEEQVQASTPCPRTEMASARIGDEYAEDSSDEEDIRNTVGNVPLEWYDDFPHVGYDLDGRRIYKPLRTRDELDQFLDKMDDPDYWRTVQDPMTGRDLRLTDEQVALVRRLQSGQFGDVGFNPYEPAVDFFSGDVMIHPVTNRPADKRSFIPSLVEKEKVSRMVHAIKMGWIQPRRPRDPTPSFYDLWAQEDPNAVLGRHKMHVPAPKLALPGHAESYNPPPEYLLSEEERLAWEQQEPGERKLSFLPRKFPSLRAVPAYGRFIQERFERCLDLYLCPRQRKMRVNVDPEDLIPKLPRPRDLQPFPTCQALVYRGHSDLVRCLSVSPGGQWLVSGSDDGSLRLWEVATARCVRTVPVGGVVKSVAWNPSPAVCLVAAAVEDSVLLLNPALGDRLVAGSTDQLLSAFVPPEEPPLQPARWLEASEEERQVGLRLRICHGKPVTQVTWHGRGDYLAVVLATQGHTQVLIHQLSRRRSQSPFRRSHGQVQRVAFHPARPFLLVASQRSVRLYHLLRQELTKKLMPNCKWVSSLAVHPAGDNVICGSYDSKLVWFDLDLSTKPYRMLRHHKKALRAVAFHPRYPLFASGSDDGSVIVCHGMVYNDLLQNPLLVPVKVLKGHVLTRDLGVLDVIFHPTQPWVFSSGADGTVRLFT
# UniProt P46100: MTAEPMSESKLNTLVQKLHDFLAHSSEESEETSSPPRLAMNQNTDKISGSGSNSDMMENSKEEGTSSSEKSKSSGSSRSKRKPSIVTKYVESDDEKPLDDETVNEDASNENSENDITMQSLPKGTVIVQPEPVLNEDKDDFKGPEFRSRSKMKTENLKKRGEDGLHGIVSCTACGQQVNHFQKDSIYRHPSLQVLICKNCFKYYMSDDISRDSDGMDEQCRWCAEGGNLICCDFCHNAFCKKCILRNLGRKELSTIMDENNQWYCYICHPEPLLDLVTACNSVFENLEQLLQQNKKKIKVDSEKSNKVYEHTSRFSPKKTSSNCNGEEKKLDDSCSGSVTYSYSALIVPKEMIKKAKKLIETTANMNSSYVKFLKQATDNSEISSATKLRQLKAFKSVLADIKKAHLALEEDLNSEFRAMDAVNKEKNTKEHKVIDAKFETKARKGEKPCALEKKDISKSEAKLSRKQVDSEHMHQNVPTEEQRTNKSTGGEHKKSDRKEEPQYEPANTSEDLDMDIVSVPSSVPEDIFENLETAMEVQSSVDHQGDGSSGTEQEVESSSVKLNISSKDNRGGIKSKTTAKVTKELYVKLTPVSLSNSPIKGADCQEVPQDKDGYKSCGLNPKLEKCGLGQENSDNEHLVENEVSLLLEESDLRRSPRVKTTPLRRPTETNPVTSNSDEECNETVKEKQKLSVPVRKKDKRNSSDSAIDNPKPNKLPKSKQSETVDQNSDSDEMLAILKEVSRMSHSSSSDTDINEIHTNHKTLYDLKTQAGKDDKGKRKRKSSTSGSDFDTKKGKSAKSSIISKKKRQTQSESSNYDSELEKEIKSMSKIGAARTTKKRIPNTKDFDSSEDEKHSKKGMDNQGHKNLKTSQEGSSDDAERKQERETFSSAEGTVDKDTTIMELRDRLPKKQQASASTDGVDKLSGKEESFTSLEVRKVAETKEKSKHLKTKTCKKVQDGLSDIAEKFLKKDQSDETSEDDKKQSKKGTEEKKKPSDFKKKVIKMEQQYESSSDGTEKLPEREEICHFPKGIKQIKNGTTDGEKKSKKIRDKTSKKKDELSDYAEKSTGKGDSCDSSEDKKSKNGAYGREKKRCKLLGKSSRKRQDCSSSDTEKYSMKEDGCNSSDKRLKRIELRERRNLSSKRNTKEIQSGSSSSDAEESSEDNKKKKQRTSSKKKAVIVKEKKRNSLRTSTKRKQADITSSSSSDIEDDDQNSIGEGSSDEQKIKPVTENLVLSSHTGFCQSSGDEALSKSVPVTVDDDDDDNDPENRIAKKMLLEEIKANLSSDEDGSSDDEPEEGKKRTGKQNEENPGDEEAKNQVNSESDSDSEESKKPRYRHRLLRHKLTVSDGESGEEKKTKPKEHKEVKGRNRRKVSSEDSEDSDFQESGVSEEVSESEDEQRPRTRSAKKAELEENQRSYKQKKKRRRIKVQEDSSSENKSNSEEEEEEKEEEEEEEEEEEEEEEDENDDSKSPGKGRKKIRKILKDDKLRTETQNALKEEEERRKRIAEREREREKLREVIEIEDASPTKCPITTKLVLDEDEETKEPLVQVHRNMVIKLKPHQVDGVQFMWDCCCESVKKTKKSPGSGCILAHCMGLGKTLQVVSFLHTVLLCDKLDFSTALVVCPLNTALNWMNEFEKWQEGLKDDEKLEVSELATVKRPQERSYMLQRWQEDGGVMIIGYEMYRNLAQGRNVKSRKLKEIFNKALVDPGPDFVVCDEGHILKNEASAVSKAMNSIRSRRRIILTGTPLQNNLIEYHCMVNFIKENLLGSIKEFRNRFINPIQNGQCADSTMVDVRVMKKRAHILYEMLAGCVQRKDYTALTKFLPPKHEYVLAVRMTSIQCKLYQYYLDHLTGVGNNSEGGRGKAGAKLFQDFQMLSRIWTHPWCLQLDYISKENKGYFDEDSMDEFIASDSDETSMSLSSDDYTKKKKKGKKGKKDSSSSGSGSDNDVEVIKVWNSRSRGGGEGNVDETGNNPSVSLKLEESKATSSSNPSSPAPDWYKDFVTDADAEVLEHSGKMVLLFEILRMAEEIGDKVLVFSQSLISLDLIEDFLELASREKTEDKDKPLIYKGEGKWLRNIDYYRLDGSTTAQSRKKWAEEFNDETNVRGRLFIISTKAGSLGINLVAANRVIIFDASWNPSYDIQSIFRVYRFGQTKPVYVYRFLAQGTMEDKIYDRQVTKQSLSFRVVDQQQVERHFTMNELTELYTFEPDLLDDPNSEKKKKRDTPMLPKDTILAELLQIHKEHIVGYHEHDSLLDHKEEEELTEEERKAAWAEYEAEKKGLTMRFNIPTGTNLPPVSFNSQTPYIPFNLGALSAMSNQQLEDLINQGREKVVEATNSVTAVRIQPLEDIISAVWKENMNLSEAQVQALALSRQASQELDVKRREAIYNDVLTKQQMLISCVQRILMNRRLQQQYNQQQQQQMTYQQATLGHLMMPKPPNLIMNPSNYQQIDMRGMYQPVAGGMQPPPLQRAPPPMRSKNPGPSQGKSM
# UniProt Q9NRL2: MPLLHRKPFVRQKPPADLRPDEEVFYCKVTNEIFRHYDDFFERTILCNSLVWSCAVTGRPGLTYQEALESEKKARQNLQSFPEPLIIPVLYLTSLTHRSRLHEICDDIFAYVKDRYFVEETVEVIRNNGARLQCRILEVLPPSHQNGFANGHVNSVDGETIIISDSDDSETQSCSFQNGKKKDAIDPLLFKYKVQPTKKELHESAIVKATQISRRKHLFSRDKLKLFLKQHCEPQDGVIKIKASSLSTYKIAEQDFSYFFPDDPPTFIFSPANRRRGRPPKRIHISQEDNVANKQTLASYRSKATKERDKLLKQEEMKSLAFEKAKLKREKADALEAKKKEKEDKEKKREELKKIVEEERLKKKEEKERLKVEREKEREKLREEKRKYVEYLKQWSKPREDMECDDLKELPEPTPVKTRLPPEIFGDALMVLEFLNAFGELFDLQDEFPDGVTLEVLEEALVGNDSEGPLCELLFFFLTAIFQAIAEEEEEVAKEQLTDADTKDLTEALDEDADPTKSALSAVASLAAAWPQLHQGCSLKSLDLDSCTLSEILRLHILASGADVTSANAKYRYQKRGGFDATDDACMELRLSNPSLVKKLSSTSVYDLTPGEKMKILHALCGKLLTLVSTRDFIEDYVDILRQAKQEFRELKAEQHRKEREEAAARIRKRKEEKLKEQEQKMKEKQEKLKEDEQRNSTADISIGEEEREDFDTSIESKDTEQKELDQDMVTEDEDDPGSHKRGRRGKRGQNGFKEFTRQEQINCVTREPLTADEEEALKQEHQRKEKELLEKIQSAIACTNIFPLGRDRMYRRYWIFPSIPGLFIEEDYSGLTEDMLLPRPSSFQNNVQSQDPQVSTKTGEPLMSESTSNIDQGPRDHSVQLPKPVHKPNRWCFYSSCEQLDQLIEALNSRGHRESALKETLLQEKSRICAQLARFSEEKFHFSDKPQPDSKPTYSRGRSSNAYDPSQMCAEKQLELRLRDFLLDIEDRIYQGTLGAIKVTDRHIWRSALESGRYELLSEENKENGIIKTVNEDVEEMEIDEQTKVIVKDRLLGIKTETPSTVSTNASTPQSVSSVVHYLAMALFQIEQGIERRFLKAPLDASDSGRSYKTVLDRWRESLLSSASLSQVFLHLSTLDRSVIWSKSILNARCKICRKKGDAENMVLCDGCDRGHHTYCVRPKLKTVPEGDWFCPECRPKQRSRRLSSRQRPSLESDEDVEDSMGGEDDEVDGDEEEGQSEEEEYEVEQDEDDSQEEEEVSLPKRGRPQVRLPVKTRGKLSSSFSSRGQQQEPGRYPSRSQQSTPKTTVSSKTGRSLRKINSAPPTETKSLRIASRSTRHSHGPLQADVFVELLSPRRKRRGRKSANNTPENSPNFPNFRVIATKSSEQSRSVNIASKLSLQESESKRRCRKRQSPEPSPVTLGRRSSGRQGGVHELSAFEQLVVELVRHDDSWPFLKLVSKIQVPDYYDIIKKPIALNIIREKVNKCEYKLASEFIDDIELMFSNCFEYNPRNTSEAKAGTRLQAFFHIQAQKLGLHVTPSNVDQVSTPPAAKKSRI
# UniProt Q9UBW5: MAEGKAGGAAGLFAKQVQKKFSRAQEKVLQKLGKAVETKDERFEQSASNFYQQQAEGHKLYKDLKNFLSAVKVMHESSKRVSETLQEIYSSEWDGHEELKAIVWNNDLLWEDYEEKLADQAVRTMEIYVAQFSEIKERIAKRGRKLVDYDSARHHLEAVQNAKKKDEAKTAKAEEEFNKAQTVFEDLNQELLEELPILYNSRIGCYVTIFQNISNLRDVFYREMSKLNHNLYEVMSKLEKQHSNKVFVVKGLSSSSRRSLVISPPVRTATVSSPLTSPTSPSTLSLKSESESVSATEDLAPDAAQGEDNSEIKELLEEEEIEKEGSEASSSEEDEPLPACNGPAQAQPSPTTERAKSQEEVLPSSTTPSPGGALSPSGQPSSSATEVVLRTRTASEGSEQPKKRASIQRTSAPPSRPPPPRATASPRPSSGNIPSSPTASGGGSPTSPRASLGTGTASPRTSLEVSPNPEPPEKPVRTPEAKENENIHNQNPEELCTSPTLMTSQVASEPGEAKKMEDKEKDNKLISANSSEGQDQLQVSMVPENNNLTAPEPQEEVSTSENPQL
# Compound: CC1Cc2ccccc2N1C(=O)C1CCCN(C1)C(=O)CCl (mixture of isomers) [TRIM25 ligand 11 (diastereomer mixture)]
# Experiment: probe-labelled cysteine peptide fold change vs DMSO (competition) (log2 fold change); higher = less target engagement (more negative = stronger competition)
# Details: THP-1, incubation time: 4 h
# 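Further: competitive chemoproteomic profiling in live THP-1 cells with an iodoacetamide desthiobiotin (IA-DTB) probe, comparing probe-labelled peptide intensities in compound-treated cells against DMSO-treated controls.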
Target,probe-labelled cysteine peptide fold change (10 µM),probe-labelled cysteine peptide fold change (50 µM)
BMP2K_Q9NSY1_292_NIHCLIR (UniProt Q9NSY1),0.0146,0.0903
BIRC6_Q9NR09_3108_AFHDMGGVQLICNNMVTSTR (UniProt Q9NR09),0.248,-0.0924
ATXN7_O15265_347_EFDPDIHCGVIDLDTK (UniProt O15265),-0.116,-0.13
BCR_P11274_886_SFSLTSVELQMLTNSCVK (UniProt P11274),0.0219,0.037
BAHD1_Q8TBE0_598_TNGWVPVGAACEK (UniProt Q8TBE0),0.124,0.0893
BAZ2A_Q9UIF9_1697_GDNDEFLLLCDGCDR (UniProt Q9UIF9),0.284,-0.0807
BOP1_Q14137_108_TTEEQVQASTPCPR (UniProt Q14137),-0.161,-0.298
BAG5_Q9UL15_157_ICAVQEIIEDCMK (UniProt Q9UL15),0.0482,-0.0569
BCAR3_O75815_408_GSDSQLCPKPPPKPCK (UniProt O75815),-0.138,-0.272
BAG1_Q99933_330_VQAFLAECDTVEQNICQETER (UniProt Q99933),0.508,-0.011
BOP1_Q14137_108_KTTEEQVQASTPCPR (UniProt Q14137),-0.18,-0.225
AVEN_Q9NQS1_251_SVAAGCPVLLGK (UniProt Q9NQS1),0.0433,-0.12
ATRX_P46100_235_WCAEGGNLICCDFCHNAFCK (UniProt P46100),-0.0635,0.0409
ATRX_P46100_1576_LKPHQVDGVQFMWDCCCESVK (UniProt P46100),0.101,-0.0863
ATXN10_Q9UBB4_165_NEDSQSIVWVHAFPELFLSCLNHPDK (UniProt Q9UBB4),0.0516,0.192
BACH1_O14867_557_LTPEQLDCIHDIR (UniProt O14867),-0.0606,-0.266
BIRC6_Q9NR09_3773_TAIENATVAFFLQCISCHPNNQK (UniProt Q9NR09),0.0154,0.082
BCCIP_Q9P287_141_GTQCVEQIQELVLR (UniProt Q9P287),0.0501,0.114
BMP2K_Q9NSY1_197_VENILLNDGGNYVLCDFGSATNK (UniProt Q9NSY1),-0.349,-0.141

Target,probe-labelled cysteine peptide fold change (10 µM),probe-labelled cysteine peptide fold change (50 µM)
BIRC6_Q9NR09_1183_LCPFLEDHKEDILCGPVWLASGLDLSGHAGMLTLTSPK (UniProt Q9NR09),0.0745,0.00914
BCAS2_O75934_132_IENLELMSQHGCNAWK (UniProt O75934),-0.0127,-0.0991
BAG6_P46379_856_TNLEFLQEQFNSIAAHVLHCTDSGFGAR (UniProt P46379),-0.0233,-0.127
BPNT1_O95861_206_LVTDCVAAMNPDAVLR (UniProt O95861),-0.0832,-0.0713
BAZ1A_Q9NRL2_764_QEQINCVTREPLTADEEEALK (UniProt Q9NRL2),0.112,0.0187
BCKDHB_P21953_299_LGVSCEVIDLR (UniProt P21953),0.0507,-0.0397
BIN2_Q9UBW5_205_IGCYVTIFQNISNLR (UniProt Q9UBW5),0.21,0.194
BIRC6_Q9NR09_355_HSPNCPFVK (UniProt Q9NR09),-0.079,-0.0323
BAX_Q07812_62_KLSECLK (UniProt Q07812),-0.00084,0.2
BAZ1A_Q9NRL2_537_SALSAVASLAAAWPQLHQGCSLK (UniProt Q9NRL2),-0.0957,-0.232
BCAT2_O15382_147_LCLPSFDKLELLECIR (UniProt O15382),-0.15,0.04
BCOR_Q6W2J9_1311_QAQPSCAPASRPPAK (UniProt Q6W2J9),-0.00663,-0.0365
BLVRA_P53004_281_RILHCLGLAEEIQK (UniProt P53004),-0.081,0.124
ATXN2_Q99700_556_VVNGGVPWPSPCPSPSSRPPSR (UniProt Q99700),-0.136,-0.0514
BAZ1B_Q9UIG0_338_LWCHVHLK (UniProt Q9UIG0),-0.0182,-0.194
BCORL1_Q5H9F3_1709_LLGSEVEFQSCNS (UniProt Q5H9F3),-0.0788,-0.044
ATXN10_Q9UBB4_65_SSHAVELACRDPSQVENLASSLQLITECFR (UniProt Q9UBB4),0.141,-0.101
BMP2K_Q9NSY1_160_LQTGFTEPEVLQIFCDTCEAVAR (UniProt Q9NSY1),-0.352,-0.0816

# Two entries from above, tab-delimited.
Target	probe-labelled cysteine peptide fold change (10 µM)	probe-labelled cysteine peptide fold change (50 µM)
ATRX_P46100_1576_LKPHQVDGVQFMWDCCCESVK (UniProt P46100)	0.101	-0.0863
BIN2_Q9UBW5_205_IGCYVTIFQNISNLR (UniProt Q9UBW5)	0.21	0.194
